Reference: patent publication US8471021B2, “Sulfur containing heterocycle-fused naphthalene tetracarboxylic acid diimide derivatives, preparation method and use thereof” (Shanghai Institute Of Organic Chemistry, Chinese Academy Of …, priority 2009, dated 2013)

Test: Organic thin-film transistor (OTFT) devices made by solution process with the compound as semiconducting layer; electrical performance
Settings: for Average electron mobility μe / Maximum electron mobility μe: room temperature in air, ≧10 devices; for electron mobility / on/off ratio / threshold voltage: transfer curve of one OTFT device (figure legend)

Row | SMILES | Current on/off ratio Ion/Ioff (annealing 120° C.) | Threshold voltage VT (annealing 120° C.) | Average electron mobility μe (annealing 120° C.) | Maximum electron mobility μe (annealing 120° C.) | Current on/off ratio Ion/Ioff (annealing 160° C.) | Threshold voltage VT (annealing 160° C.) | Average electron mobility μe (annealing 160° C.) | Maximum electron mobility μe (annealing 160° C.) | Current on/off ratio Ion/Ioff (annealing 180° C.) | Threshold voltage VT (annealing 180° C.) | Average electron mobility μe (annealing 180° C.) | Maximum electron mobility μe (annealing 180° C.) | electron mobility | on/off ratio | threshold voltage
1 | CCCCCCCCC(CCCCCC)CCn1c(=O)c2c3sc(=C(C#N)C#N)sc3c3c(=O)n(CCC(CCCCCC)CCCCCCCC)c(=O)c4c5sc(=C(C#N)C#N)sc5c(c1=O)c2c34 (stereo not drawn) [Compound 7, N,N′-di(3-hexylundecyl)-[2,3-d:6,7-d′]-bi[2-(1,3-dithiacyclopenten-2-ylidene)-2-malononitrile]-naphthalene-1,4,5,8-tetracarboxylic acid diimide] | 10^6-10^7 | −1-5 V | (0.12) cm^2/Vs | 0.14 cm^2/Vs | 10^6-10^7 | −1-7 V | (0.24) cm^2/Vs | 0.26 cm^2/Vs | 10^6-10^7 | −2-4 V | (0.18) cm^2/Vs | 0.20 cm^2/Vs |  |  | 
2 | CCCCCCCCCCC(CCCCCCCC)Cn1c(=O)c2c3sc(=C(C#N)C(=O)OCC)sc3c3c(=O)n(CC(CCCCCCCC)CCCCCCCCCC)c(=O)c4c5sc(=C(C#N)C(=O)OCC)sc5c(c1=O)c2c34 (stereo not drawn) [Compound 9, N,N′-di(2-octyldodecyl)-[2,3-d:6,7-d′]-bi[ethyl 2-(1,3-dithiacyclopenten-2-ylidene)-2-cyanoacetate]-naphthalene-1,4,5,8-tetracarboxylic acid diimide] | 10^3-10^4 | 32-45 V | (3 × 10^−4) cm^2/Vs | 5 × 10^−4 cm^2/Vs | 10^3-10^4 | 12-35 V | (9 × 10^−4) cm^2/Vs | 1.1 × 10^−3 cm^2/Vs | 10^3-10^4 | 10-16 V | (2 × 10^−3) cm^2/Vs | 4 × 10^−3 cm^2/Vs | 10^−3 cm^2/Vs | 10^4 | 8 V
3 | CCCCCCCCC(CCCCCC)Cn1c(=O)c2c3sc(=C(C#N)C#N)sc3c3c(=O)n(CC(CCCCCC)CCCCCCCC)c(=O)c4c5sc(=C(C#N)C#N)sc5c(c1=O)c2c34 (stereo not drawn) [Compound 3, N,N′-di(2-hexyldecyl)-[2,3-d:6,7-d′]-bi[2-(1,3-dithiacyclopenten-2-ylidene)-2-malononitrile]-naphthalene-1,4,5,8-tetracarboxylic acid diimide] | 10^5-10^6 | 2-10 V | (0.09) cm^2/Vs | 0.10 cm^2/Vs | 10^5-10^6 | 2-10 V | (0.13) cm^2/Vs | 0.14 cm^2/Vs | 10^5-10^6 | 5-11 V | (0.17) cm^2/Vs | 0.19 cm^2/Vs |  |  | 
4 | CCCCCCC(CCCCCC)Cn1c(=O)c2c3sc(=C(C#N)C#N)sc3c3c(=O)n(CC(CCCCCC)CCCCCC)c(=O)c4c5sc(=C(C#N)C#N)sc5c(c1=O)c2c34 [Compound 4, N,N′-di(2-hexyloctyl)-[2,3-d:6,7-d′]-bi[2-(1,3-dithiacyclopenten-2-ylidene)-2-malononitrile]-naphthalene-1,4,5,8-tetracarboxylic acid diimide] | 10^5-10^6 | 1-5 V | (0.07) cm^2/Vs | 0.08 cm^2/Vs | 10^5-10^6 | 3-11 V | (0.15) cm^2/Vs | 0.16 cm^2/Vs | 10^5-10^6 | 2-10 V | (0.20) cm^2/Vs | 0.21 cm^2/Vs |  |  | 
5 | CCCCCCCCCCC(CCCCCCCC)Cn1c(=O)c2c3sc(=C(C#N)C#N)sc3c3c(=O)n(CC(CCCCCCCC)CCCCCCCCCC)c(=O)c4c5sc(=C(C#N)C#N)sc5c(c1=O)c2c34 (stereo not drawn) [Compound 2, N,N′-di(2-octyldodecyl)-[2,3-d:6,7-d′]-bi[2-(1,3-dithiacyclopenten-2-ylidene)-2-malononitrile]-naphthalene-1,4,5,8-tetracarboxylic acid diimide] | 10^5-10^6 | −2-6 V | (0.10) cm^2/Vs | 0.14 cm^2/Vs | 10^5-10^6 | 0-8 V | (0.20) cm^2/Vs | 0.25 cm^2/Vs | 10^5-10^7 | 0-5 V | (0.32) cm^2/Vs | 0.42 cm^2/Vs | 0.36 cm^2/Vs | 10^7 | 4 V
6 | CCCCCCC(CCCC)Cn1c(=O)c2c3sc(=C(C#N)C#N)sc3c3c(=O)n(CC(CCCC)CCCCCC)c(=O)c4c5sc(=C(C#N)C#N)sc5c(c1=O)c2c34 (stereo not drawn) [Compound 5, N,N′-di(2-butyloctyl)-[2,3-d:6,7-d′]-bi[2-(1,3-dithiacyclopenten-2-ylidene)-2-malononitrile]-naphthalene-1,4,5,8-tetracarboxylic acid diimide] | 10^5-10^6 |  | (0.11) cm^2/Vs | 0.12 cm^2/Vs | 10^5-10^6 | 8-14 V | (0.14) cm^2/Vs | 0.15 cm^2/Vs | 10^6-10^8 | 7-14 V | (0.19) cm^2/Vs | 0.21 cm^2/Vs |  |  | 
7 | CCCCCCCCCCCCC(CCCCCCCCCC)CN1C(=O)c2c3sc(C#N)c(C#N)c3c3c4c(c5sc(C#N)c(C#N)c5c(c24)C1=O)C(=O)N(CC(CCCCCCCCCC)CCCCCCCCCCCC)C3=O (stereo not drawn) [Compound 18, N,N′-di(2-decyl-tetradecyl)-[2,3-d:6,7-d′]-bi[α,β-dicyanothiophene]-naphthalene-1,4,5,8-tetracarboxylic acid diimide] | 10^4-10^5 | 2-11 V | (6 × 10^−4) cm^2/Vs | 1.2 × 10^−3 cm^2/Vs |  |  |  |  |  |  |  |  | 10^−3 cm^2/Vs | 10^5 | 10 V
8 | CCCCCCCCCCCCC(CCCCCCCCCC)Cn1c(=O)c2c3sc(=C(C#N)C#N)sc3c3c(=O)n(CC(CCCCCCCCCC)CCCCCCCCCCCC)c(=O)c4c5sc(=C(C#N)C#N)sc5c(c1=O)c2c34 (stereo not drawn) [Compound 1, N,N′-di(2-decyltetradecyl)-[2,3-d:6,7-d′]-bi[2-(1,3-dithiacyclopenten-2-ylidene)-2-malononitrile]-naphthalene-1,4,5,8-tetracarboxylic acid diimide] | 10^5-10^6 | −2-4 V | (0.09) cm^2/Vs | 0.12 cm^2/Vs | 10^5-10^6 | −2-5 V | (0.15) cm^2/Vs | 0.20 cm^2/Vs | 10^5-10^6 | −2-1 V | (0.14) cm^2/Vs | 0.15 cm^2/Vs |  |  | 
9 | CCCCCCCCCCC(CCCCCCCC)Cn1c(=O)c2c3sc(C#N)c(C#N)sc3c3c(=O)n(CC(CCCCCCCC)CCCCCCCCCC)c(=O)c4c5sc(C#N)c(C#N)sc5c(c1=O)c2c34 (stereo not drawn) [Compound 15, N,N′-di(2-octyl-dodecyl)-[2,3-d:6,7-d′]-bi[1,4-dithiacyclohexadiene-2,3-dicarbonitrile]-naphthalene-1,4,5,8-tetracarboxylic acid diimide] | 10^4-10^5 | 20-40 V | (1.2 × 10^−3) cm^2/Vs | 1.5 × 10^−3 cm^2/Vs | 10^4-10^5 | 10-35 V | (1.3 × 10^−2) cm^2/Vs | 1.6 × 10^−2 cm^2/Vs | 10^4-10^5 | 20-41 V | (5 × 10^−3) cm^2/Vs | 7 × 10^−3 cm^2/Vs | 0.016 cm^2/Vs | 10^6 | 10 V
